Results from publication PMC11724288.
These are yes or no findings as the source states them, for the method shown. Some results given as binding are weak or reduced against the parent protein; the word gives no strength. Values belong to the binder of their own block, whether it stands above or below them.

Experiments:
Assay in all cases: cryo-EM structure; TFIIICΔtail with 85-bp or 120-bp tRNA^His DNA; 20 mM HEPES pH 8.0, 2 mM MgCl2, 5 mM DTT, 75-200 mM KCl (datasets 1-5); separate reconstructions of τA–DNA (3.65 Å) and τB–DNA (2.46 Å); both purified
[1] = molecular target: T1, τ91 subunit of S. cerevisiae TFIIIC (S. cerevisiae) (UniProt Q06339)
T1 sequence: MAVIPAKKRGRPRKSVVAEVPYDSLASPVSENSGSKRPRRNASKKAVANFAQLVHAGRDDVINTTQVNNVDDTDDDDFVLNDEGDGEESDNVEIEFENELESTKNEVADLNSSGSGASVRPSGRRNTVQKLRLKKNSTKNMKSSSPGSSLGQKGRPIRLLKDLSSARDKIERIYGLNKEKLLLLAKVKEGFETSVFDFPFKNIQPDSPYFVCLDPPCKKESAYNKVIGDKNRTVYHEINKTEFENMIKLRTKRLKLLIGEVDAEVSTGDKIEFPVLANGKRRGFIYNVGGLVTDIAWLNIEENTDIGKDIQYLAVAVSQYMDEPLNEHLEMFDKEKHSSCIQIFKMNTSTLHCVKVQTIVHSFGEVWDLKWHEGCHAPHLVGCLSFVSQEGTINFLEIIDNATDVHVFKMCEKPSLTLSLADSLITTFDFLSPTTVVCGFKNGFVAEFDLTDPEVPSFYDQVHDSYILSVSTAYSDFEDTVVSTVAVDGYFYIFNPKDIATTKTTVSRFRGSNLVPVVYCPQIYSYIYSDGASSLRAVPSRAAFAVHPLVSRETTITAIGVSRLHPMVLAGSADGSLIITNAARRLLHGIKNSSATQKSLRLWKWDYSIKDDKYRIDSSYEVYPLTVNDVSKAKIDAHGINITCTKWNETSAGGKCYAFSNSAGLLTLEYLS

[2] = molecular target: T2, τ95 subunit of S. cerevisiae TFIIIC, C-terminally truncated at residue 593 (S. cerevisiae) (UniProt P32367)
T2 sequence: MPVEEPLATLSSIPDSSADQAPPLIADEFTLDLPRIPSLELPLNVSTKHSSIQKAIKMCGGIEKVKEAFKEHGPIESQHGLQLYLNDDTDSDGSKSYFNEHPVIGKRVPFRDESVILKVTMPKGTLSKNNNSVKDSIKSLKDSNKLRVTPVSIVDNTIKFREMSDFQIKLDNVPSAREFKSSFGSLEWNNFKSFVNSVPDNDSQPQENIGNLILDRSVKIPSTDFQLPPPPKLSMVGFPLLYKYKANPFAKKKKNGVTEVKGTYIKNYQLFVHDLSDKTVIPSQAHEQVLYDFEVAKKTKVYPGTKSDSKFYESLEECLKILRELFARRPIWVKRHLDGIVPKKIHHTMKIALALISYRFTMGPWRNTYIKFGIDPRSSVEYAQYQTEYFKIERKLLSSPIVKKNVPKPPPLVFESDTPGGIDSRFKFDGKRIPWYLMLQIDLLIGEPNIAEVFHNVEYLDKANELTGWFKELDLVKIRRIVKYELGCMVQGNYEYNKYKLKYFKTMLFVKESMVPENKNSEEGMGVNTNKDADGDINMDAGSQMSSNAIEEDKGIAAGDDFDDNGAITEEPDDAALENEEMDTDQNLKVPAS

[3] = molecular target: T3, τ131 subunit of S. cerevisiae TFIIIC (S. cerevisiae) (UniProt P33339)
T3 sequence: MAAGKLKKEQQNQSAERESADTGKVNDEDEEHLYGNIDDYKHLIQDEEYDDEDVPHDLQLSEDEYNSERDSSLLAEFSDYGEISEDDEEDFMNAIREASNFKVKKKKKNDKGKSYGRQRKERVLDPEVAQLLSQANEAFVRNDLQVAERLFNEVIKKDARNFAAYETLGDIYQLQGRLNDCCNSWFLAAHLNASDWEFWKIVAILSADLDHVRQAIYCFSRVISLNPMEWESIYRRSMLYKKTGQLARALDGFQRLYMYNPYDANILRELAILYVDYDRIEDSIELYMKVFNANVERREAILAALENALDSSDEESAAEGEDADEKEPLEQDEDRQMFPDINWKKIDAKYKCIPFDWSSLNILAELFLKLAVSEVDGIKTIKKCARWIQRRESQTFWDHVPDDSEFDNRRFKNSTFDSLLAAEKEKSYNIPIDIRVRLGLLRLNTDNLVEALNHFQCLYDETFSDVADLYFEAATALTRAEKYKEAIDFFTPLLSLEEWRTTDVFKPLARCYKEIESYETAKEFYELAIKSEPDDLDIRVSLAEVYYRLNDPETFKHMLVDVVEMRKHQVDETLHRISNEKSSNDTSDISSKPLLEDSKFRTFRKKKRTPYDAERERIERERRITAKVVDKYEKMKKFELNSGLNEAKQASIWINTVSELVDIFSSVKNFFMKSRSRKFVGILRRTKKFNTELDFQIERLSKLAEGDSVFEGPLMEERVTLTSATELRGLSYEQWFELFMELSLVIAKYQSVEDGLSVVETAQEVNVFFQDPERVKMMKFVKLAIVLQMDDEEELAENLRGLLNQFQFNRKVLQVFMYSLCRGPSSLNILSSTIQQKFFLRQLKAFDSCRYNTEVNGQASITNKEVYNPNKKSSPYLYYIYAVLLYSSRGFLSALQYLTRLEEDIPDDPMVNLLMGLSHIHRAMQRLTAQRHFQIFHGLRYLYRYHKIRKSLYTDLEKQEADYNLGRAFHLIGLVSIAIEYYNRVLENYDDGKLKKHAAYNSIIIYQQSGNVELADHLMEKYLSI

[4] = molecular target: T4, τ55 subunit of S. cerevisiae TFIIIC (S. cerevisiae) (UniProt Q12415)
T4 sequence: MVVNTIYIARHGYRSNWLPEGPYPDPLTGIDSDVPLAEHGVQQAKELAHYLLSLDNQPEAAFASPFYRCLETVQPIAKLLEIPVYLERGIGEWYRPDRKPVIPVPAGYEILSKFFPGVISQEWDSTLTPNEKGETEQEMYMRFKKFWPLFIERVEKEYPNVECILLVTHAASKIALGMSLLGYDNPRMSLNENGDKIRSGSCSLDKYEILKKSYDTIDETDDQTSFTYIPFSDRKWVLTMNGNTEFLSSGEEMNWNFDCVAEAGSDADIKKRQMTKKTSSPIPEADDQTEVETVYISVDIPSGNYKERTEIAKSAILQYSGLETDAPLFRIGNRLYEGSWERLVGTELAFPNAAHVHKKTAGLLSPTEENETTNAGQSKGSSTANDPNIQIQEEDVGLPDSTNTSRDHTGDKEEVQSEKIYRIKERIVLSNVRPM

[5] = molecular target: T5, τ60 subunit of S. cerevisiae TFIIIC (S. cerevisiae) (UniProt Q12308)
T5 sequence: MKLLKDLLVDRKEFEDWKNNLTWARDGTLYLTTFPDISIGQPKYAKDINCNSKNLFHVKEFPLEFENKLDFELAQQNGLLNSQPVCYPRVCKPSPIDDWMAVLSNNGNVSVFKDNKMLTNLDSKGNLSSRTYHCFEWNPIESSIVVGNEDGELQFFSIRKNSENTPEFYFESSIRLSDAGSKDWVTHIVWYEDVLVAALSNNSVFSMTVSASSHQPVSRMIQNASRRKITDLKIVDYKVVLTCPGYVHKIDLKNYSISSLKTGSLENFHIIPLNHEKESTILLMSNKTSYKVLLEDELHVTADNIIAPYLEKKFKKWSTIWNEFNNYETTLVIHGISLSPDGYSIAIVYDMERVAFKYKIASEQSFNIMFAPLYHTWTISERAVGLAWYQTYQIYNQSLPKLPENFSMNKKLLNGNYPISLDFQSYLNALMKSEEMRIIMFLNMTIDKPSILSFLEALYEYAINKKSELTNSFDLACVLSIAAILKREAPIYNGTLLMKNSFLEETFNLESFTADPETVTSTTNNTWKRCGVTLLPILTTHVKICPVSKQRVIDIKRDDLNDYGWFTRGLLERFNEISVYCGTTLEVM

- binding [1]: binds
B1: τ60 subunit of S. cerevisiae TFIIIC (protein, UniProt Q12308 1-588)
chain: T5 sequence

- binding [2]: binds
B2: τ55 subunit of S. cerevisiae TFIIIC (protein, UniProt Q12415 1-435)
chain: T4 sequence

- binding [3]: binds
- binding [4]: binds
- binding [5]: binds
- binding [1]: binds
- binding [2]: binds
B3: τ138 subunit of S. cerevisiae TFIIIC (protein, UniProt P34111 1-1160)
chain: MVLTIYPDELVQIVSDKIASNKGKITLNQLWDISGKYFDLSDKKVKQFVLSCVILKKDIEVYCDGAITTKNVTDIIGDANHSYSVGITEDSLWTLLTGYTKKESTIGNSAFELLLEVAKSGEKGINTMDLAQVTGQDPRSVTGRIKKINHLLTSSQLIYKGHVVKQLKLKKFSHDGVDSNPYINIRDHLATIVEVVKRSKNGIRQIIDLKRELKFDKEKRLSKAFIAAIAWLDEKEYLKKVLVVSPKNPAIKIRCVKYVKDIPDSKGSPSFEYDSNSADEDSVSDSKAAFEDEDLVEGLDNFNATDLLQNQGLVMEEKEDAVKNEVLLNRFYPLQNQTYDIADKSGLKGISTMDVVNRITGKEFQRAFTKSSEYYLESVDKQKENTGGYRLFRIYDFEGKKKFFRLFTAQNFQKLTNAEDEISVPKGFDELGKSRTDLKTLNEDNFVALNNTVRFTTDSDGQDIFFWHGELKIPPNSKKTPNKNKRKRQVKNSTNASVAGNISNPKRIKLEQHVSTAQEPKSAEDSPSSNGGTVVKGKVVNFGGFSARSLRSLQRQRAILKVMNTIGGVAYLREQFYESVSKYMGSTTTLDKKTVRGDVDLMVESEKLGARTEPVSGRKIIFLPTVGEDAIQRYILKEKDSKKATFTDVIHDTEIYFFDQTEKNRFHRGKKSVERIRKFQNRQKNAKIKASDDAISKKSTSVNVSDGKIKRRDKKVSAGRTTVVVENTKEDKTVYHAGTKDGVQALIRAVVVTKSIKNEIMWDKITKLFPNNSLDNLKKKWTARRVRMGHSGWRAYVDKWKKMLVLAIKSEKISLRDVEELDLIKLLDIWTSFDEKEIKRPLFLYKNYEENRKKFTLVRDDTLTHSGNDLAMSSMIQREISSLKKTYTRKISASTKDLSKSQSDDYIRTVIRSILIESPSTTRNEIEALKNVGNESIDNVIMDMAKEKQIYLHGSKLECTDTLPDILENRGNYKDFGVAFQYRCKVNELLEAGNAIVINQEPSDISSWVLIDLISGELLNMDVIPMVRNVRPLTYTSRRFEIRTLTPPLIIYANSQTKLNTARKSAVKVPLGKPFSRLWVNGSGSIRPNIWKQVVTMVVNEIIFHPGITLSRLQSRCREVLSLHEISEICKWLLERQVLITTDFDGYWVNHNWYSIYEST
